In US9175357B2, “Fragment ligated inhibitors selective for the polo box domain of PLK1” (UNIVERSITY OF SOUTH CAROLINA, priority 2011, dated 2015):
Not every detail of the peptide structures is certain; ends, links or a residue may be inferred. At least one structure is not confirmed: it was looked up by name or label, or the drawing left a doubt. Square brackets hold non-standard residues; d marks the D form. Ends that are not written are not given here. Peptide text beside a SMILES is read from it. * marks the point of attachment. pT = C[C@@H](OP(=O)(O)O)[C@H](N)C(=O)O; Benzoyl(4-Et) = CCc1ccc(C(=O)*)cc1; X1 = CCCCc1ccc(C(=O)*)cc1

The chains behind the UniProt entries cited, without tags or fusion partners.
UniProt P53350, whole entry: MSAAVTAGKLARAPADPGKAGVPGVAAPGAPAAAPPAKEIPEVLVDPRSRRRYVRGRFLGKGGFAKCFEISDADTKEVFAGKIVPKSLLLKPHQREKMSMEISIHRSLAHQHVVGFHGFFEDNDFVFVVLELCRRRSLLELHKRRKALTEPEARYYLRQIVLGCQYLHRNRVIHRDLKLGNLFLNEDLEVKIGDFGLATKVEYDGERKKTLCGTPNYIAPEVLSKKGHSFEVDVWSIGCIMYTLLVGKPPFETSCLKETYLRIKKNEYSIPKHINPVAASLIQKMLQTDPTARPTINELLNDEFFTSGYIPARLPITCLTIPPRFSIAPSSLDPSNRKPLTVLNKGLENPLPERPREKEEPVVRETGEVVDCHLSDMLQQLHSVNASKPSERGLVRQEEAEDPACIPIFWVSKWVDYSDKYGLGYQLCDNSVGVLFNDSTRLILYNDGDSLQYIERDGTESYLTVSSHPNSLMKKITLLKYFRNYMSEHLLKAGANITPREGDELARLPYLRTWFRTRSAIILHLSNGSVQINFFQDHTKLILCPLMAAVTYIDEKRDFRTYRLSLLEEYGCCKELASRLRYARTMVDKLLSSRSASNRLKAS

Columns and labels:
HeLa-H2B-GFP cells = assay: Aberrant prometaphase/metaphase analysis; format: cell-based, human; settings: for aberrant prometaphase/metaphase features: 30 μM dose; for Aberrant mitoses @ 24 hr, 30 nM: table head prints 30 nM, text says 30 μM
HeLa cells = assay: Annexin V-propidium iodide apoptosis/necrosis assay by flow cytometry; settings: table head prints 30 nM, text says 30 μM
PLK1 = PLK1 (Homo sapiens (Human), UniProt P53350); assay: PLK1 centrosomal localization by immunofluorescence in QQ-transfected HeLa-H2B-GFP cells; format: cell-based; settings: PBS control 51.2, QQ control 49.2

Row | Compound | aberrant prometaphase/metaphase features (HeLa-H2B-GFP cells) | Aberrant mitoses @ 24 hr, 30 nM (HeLa-H2B-GFP cells) [%] | Apoptosis @ 24 hr, 30 nM (HeLa cells) [%] | relative fluorescence intensity of PLK1 staining at centrosomes (PLK1; 30 μM) | cells showing mitotic abnormalities (HeLa-H2B-GFP cells; 10 μM dose) [%] | relative fluorescence intensity of PLK1 staining at centrosomes (PLK1; 10 μM)
1 | CCCCc1ccc(C(=O)N[C@@H](CO)C(=O)N[C@H](C(=O)N2CCC[C@H]2C(=O)N[C@@H](CC(N)=O)C(=O)NCC(=O)N[C@@H](CC(C)C)C(=O)O)[C@@H](C)OP(=O)(O)O)cc1 [compound 5827, 3G2-S[pT]PNGL (4-butylbenzoic acid)] (X1-S[pT]PNGL-OH) | 54% | 53.8 | 55.5 | – | – | –
2 | CC[C@H](C)[C@H](NC(=O)[C@H](C)NC(=O)[C@@H](NC(=O)[C@H](CO)NC(=O)[C@H](Cc1c[nH]cn1)NC(=O)[C@H](CC(C)C)NC(C)=O)[C@@H](C)OP(=O)(O)O)C(=O)O [Sample No. 5781, Ac-LHS[pT]AI, reference compound] (Ac-LHS[pT]AI-OH) | approximately 23% | – | – | 35 arbitrary fluorescence units | – | –
3 | CC(=O)N1CCC[C@H]1C(=O)N[C@@H](CC(C)C)C(=O)N[C@@H](Cc1c[nH]cn1)C(=O)N[C@@H](CO)C(=O)N[C@H](C(=O)N[C@@H](C)C(=O)O)[C@@H](C)OP(=O)(O)O [compound 5743, Ac-PLHS[pT]A] (Ac-PLHS[pT]A-OH) | 40.3% | 40.3 | 34.0 | – | 32 | –
4 | LLAAAPNGL [compound 5783] | 9.5% | – | – | – | – | –
5 | CCc1ccc(C(=O)N[C@@H](CO)C(=O)N[C@H](C(=O)N2CCC[C@H]2C(=O)N[C@@H](CC(N)=O)C(=O)NCC(=O)N[C@@H](CC(C)C)C(=O)O)[C@@H](C)OP(=O)(O)O)cc1 [compound 5788, 3G1-S[pT]PNGL (4-ethylbenzoic acid)] ({Benzoyl(4-Et)}-S[pT]PNGL-OH) | – | – | – | – | – | 32 arbitrary fluorescence units
